# From the supplement of paper PMC8728848
# The list shows a part of the results.
# Tests used:
# Assay in all cases: glycan array binding signal (z-score within array); higher = stronger binding
# Conditions in all cases: glycan notation: IUPAC condensed, linker removed
# [1] = biological target: Gal(b1-4)GlcNAc(b1-3)Gal(b1-4)GlcNAc(b1-3)[Gal(b1-4)GlcNAc(b1-3)Gal(b1-4)GlcNAc(b1-6)]GalNAc
# How it was run: (§1)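 Glycan array data were curated from 3228 arrays in the Consortium for Functional Glycomics database and kept only where the protein sequence was available. Glycan names were converted to IUPAC-condensed notation, and columns mapping to the same glycan were averaged. The binding signal is a within-array Z-score, averaged across arrays of the same protein sequence at different concentrations or buffers and across linkers. Negative Z-scores can be read as non-binding.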
# [2] = biological target: Gal(b1-4)GlcNAc(b1-3)Gal(b1-4)GlcNAc(b1-6)[Gal(b1-3)]GalNAc
# How it was run: as §1
# [3] = biological target: Gal(b1-4)GlcNAc(b1-3)Gal(b1-4)[Fuc(a1-3)]GlcNAc(b1-3)Gal(b1-4)[Fuc(a1-3)]GlcNAc
# How it was run: as §1
# [4] = biological target: Gal(b1-4)GlcNAc(b1-3)GalNAc
# How it was run: as §1
# [5] = biological target: Gal(b1-4)GlcNAc(b1-3)[Fuc(a1-3)GlcNAc(b1-6)]Gal(b1-4)Glc
# How it was run: as §1
# [6] = biological target: Gal(b1-4)GlcNAc(b1-3)[Gal(b1-4)GlcNAc(b1-6)]Gal(b1-4)GlcNAc
# How it was run: as §1
# [7] = biological target: Gal(b1-4)GlcNAc(b1-3)[GlcNAc(b1-6)]Gal(b1-4)GlcNAc
# How it was run: as §1
# [8] = biological target: Gal(b1-4)GlcNAc(b1-6)Gal(b1-4)GlcNAc
# How it was run: as §1
# [9] = biological target: Gal(b1-4)GlcNAc(b1-6)GalNAc
# How it was run: as §1
# [10] = biological target: Gal(b1-4)GlcNAc(b1-6)[Gal(b1-3)]GalNAc
# How it was run: as §1
# [11] = biological target: Gal(b1-4)GlcNAc(b1-6)[Gal(b1-4)GlcNAc(b1-3)]GalNAc
# How it was run: as §1
# Gal(b1-4)GlcNAc6P = biological target: Gal(b1-4)GlcNAc6P
# How it was run: as §1
# Gal(b1-6)Gal = biological target: Gal(b1-6)Gal
# How it was run: as §1
# Gal3S(b1-3)GalNAc = biological target: Gal3S(b1-3)GalNAc
# How it was run: as §1
# Gal3S(b1-3)GlcNAc = biological target: Gal3S(b1-3)GlcNAc
# How it was run: as §1
# [12] = biological target: Gal3S(b1-3)[Fuc(a1-4)]GlcNAc
# How it was run: as §1
# Gal3S(b1-4)Glc = biological target: Gal3S(b1-4)Glc
# How it was run: as §1
# Gal3S(b1-4)Glc6S = biological target: Gal3S(b1-4)Glc6S
# How it was run: as §1
# Gal3S(b1-4)GlcNAc = biological target: Gal3S(b1-4)GlcNAc
# How it was run: as §1
# [13] = biological target: Gal3S(b1-4)[Fuc(a1-3)]Glc6S
# How it was run: as §1
# [14] = biological target: Gal3S(b1-4)[Fuc(a1-3)]GlcNAc
# How it was run: as §1
# [15] = biological target: Gal3S(b1-4)[Fuc(a1-3)]GlcNAc6S
# How it was run: as §1
# Gal3S4S(b1-4)GlcNAc = biological target: Gal3S4S(b1-4)GlcNAc
# How it was run: as §1
# Gal3S6S(b1-4)GlcNAc = biological target: Gal3S6S(b1-4)GlcNAc
# How it was run: as §1
# Gal3S6S(b1-4)GlcNAc6S = biological target: Gal3S6S(b1-4)GlcNAc6S
# How it was run: as §1
# Gal4S(b1-4)GlcNAc = biological target: Gal4S(b1-4)GlcNAc
# How it was run: as §1
# Gal4S6S(b1-4)GlcNAc = biological target: Gal4S6S(b1-4)GlcNAc
# How it was run: as §1
# Gal6P(b1-4)GlcNAc = biological target: Gal6P(b1-4)GlcNAc
# How it was run: as §1
# Gal6S(b1-3)GlcNAc = biological target: Gal6S(b1-3)GlcNAc
# How it was run: as §1
# Gal6S(b1-3)GlcNAc6S = biological target: Gal6S(b1-3)GlcNAc6S
# How it was run: as §1
# Gal6S(b1-4)Glc = biological target: Gal6S(b1-4)Glc
# How it was run: as §1
# Gal6S(b1-4)Glc6S = biological target: Gal6S(b1-4)Glc6S
# How it was run: as §1
# Gal6S(b1-4)GlcNAc = biological target: Gal6S(b1-4)GlcNAc
# How it was run: as §1
# Gal6S(b1-4)GlcNAc6S = biological target: Gal6S(b1-4)GlcNAc6S
# How it was run: as §1
# GalNAc(a1-3)Gal = biological target: GalNAc(a1-3)Gal
# How it was run: as §1
# GalNAc(a1-3)GalNAc = biological target: GalNAc(a1-3)GalNAc
# How it was run: as §1
# [16] = biological target: GalNAc(a1-3)GalNAc(b1-3)Gal(a1-4)Gal(b1-4)Glc
# How it was run: as §1
# [17] = biological target: GalNAc(a1-3)GalNAc(b1-3)Gal(a1-4)Gal(b1-4)GlcNAc
# How it was run: as §1
# GalNAc(b1-3)Gal = biological target: GalNAc(b1-3)Gal
# How it was run: as §1
# [18] = biological target: GalNAc(b1-3)Gal(a1-4)Gal(b1-4)GlcNAc
# How it was run: as §1
# [19] = biological target: GalNAc(b1-3)Gal(a1-4)Gal(b1-4)GlcNAc(b1-3)Gal(b1-4)Glc
# How it was run: as §1
# [20] = biological target: GalNAc(b1-3)Gal(a1-6)Gal(b1-4)Glc
# How it was run: as §1
# GalNAc(b1-3)GalNAc = biological target: GalNAc(b1-3)GalNAc
# How it was run: as §1
# GalNAc(b1-3)GlcNAc = biological target: GalNAc(b1-3)GlcNAc
# How it was run: as §1
# GalNAc(b1-4)Gal(b1-4)Glc = biological target: GalNAc(b1-4)Gal(b1-4)Glc
# How it was run: as §1
binder,measurement,setting,value
"Actd5 (Actinidia), P84527 (protein) ISSCNGPCRDLNDCDGQLICIKGKCNDDPQVGTHICRGTTHSHQPGGCKPSGTLTCRGKSYPTYDCSPPVTSSTPAKLTNNDFSEGGDDGGPSECDESYHNNNERIVALSTGWYNGGSRCGKMIRITASNGKSVSAKVVDECDSRHGCDKEHAGQPPCRNNIVDGSNAVWSALGLDKNVGVVDITWSMA",glycan array binding signal (z-score),[1],2.99
same,glycan array binding signal (z-score),[2],0.533
same,glycan array binding signal (z-score),[3],-0.74
same,glycan array binding signal (z-score),[4],0.34
same,glycan array binding signal (z-score),[5],0.348
same,glycan array binding signal (z-score),[6],-0.117
same,glycan array binding signal (z-score),[7],-0.668
same,glycan array binding signal (z-score),[8],-0.054
same,glycan array binding signal (z-score),[9],0.07
same,glycan array binding signal (z-score),[10],-0.525
same,glycan array binding signal (z-score),[11],-0.2
same,glycan array binding signal (z-score),Gal(b1-4)GlcNAc6P,-1.05
same,glycan array binding signal (z-score),Gal(b1-6)Gal,0.111
same,glycan array binding signal (z-score),Gal3S(b1-3)GalNAc,-0.462
same,glycan array binding signal (z-score),Gal3S(b1-3)GlcNAc,-0.689
same,glycan array binding signal (z-score),[12],-0.284
same,glycan array binding signal (z-score),Gal3S(b1-4)Glc,-0.122
same,glycan array binding signal (z-score),Gal3S(b1-4)Glc6S,0.439
same,glycan array binding signal (z-score),Gal3S(b1-4)GlcNAc,-0.351
same,glycan array binding signal (z-score),[13],-0.26
same,glycan array binding signal (z-score),[14],-0.319
same,glycan array binding signal (z-score),[15],0.505
same,glycan array binding signal (z-score),Gal3S4S(b1-4)GlcNAc,-0.195
same,glycan array binding signal (z-score),Gal3S6S(b1-4)GlcNAc,0.094
same,glycan array binding signal (z-score),Gal3S6S(b1-4)GlcNAc6S,-0.252
same,glycan array binding signal (z-score),Gal4S(b1-4)GlcNAc,-0.749
same,glycan array binding signal (z-score),Gal4S6S(b1-4)GlcNAc,-0.468
same,glycan array binding signal (z-score),Gal6P(b1-4)GlcNAc,0.385
same,glycan array binding signal (z-score),Gal6S(b1-3)GlcNAc,-0.775
same,glycan array binding signal (z-score),Gal6S(b1-3)GlcNAc6S,-0.772
same,glycan array binding signal (z-score),Gal6S(b1-4)Glc,-0.649
same,glycan array binding signal (z-score),Gal6S(b1-4)Glc6S,-0.703
same,glycan array binding signal (z-score),Gal6S(b1-4)GlcNAc,-1.08
same,glycan array binding signal (z-score),Gal6S(b1-4)GlcNAc6S,-0.506
same,glycan array binding signal (z-score),GalNAc(a1-3)Gal,-1.15
same,glycan array binding signal (z-score),GalNAc(a1-3)GalNAc,-0.951
same,glycan array binding signal (z-score),[16],-0.805
same,glycan array binding signal (z-score),[17],-0.148
same,glycan array binding signal (z-score),GalNAc(b1-3)Gal,0.368
same,glycan array binding signal (z-score),[18],0.341
same,glycan array binding signal (z-score),[19],-0.181
same,glycan array binding signal (z-score),[20],-0.63
same,glycan array binding signal (z-score),GalNAc(b1-3)GalNAc,-0.923
same,glycan array binding signal (z-score),GalNAc(b1-3)GlcNAc,-0.78
same,glycan array binding signal (z-score),GalNAc(b1-4)Gal(b1-4)Glc,-0.246

# 2 entries from above in another layout:
binder | measurement | setting | value
Actd5 (Actinidia), P84527 (protein) ISSCNGPCRDLNDCDGQLICIKGKCNDDPQVGTHICRGTTHSHQPGGCKPSGTLTCRGKSYPTYDCSPPVTSSTPAKLTNNDFSEGGDDGGPSECDESYHNNNERIVALSTGWYNGGSRCGKMIRITASNGKSVSAKVVDECDSRHGCDKEHAGQPPCRNNIVDGSNAVWSALGLDKNVGVVDITWSMA | glycan array binding signal (z-score) | [12] | -0.284
same | glycan array binding signal (z-score) | Gal3S(b1-4)Glc | -0.122
